# PubChem BioAssay AID686937 – Drosophila RNAi Screening Center | 2013
# Purpose: 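Genes in the fly needed for secretion of protein constitutively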 (primary screen)
# Cell system: Drosophila S2 cells expressing secreted horseradish peroxidase
# Reagents: long dsRNA against Drosophila genes
# Time to read-out: about 5.5 days (5 days dsRNA, then 12 h reporter induction)
# Challenge: reporter expression induced after 5 days of dsRNA, read 12 h later; inducer not stated
# Read-out: 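After 5 days of dsRNA and 12 h of reporter induction, medium peroxidase read by chemiluminescence and scored as per-plate z-score; higher values mean more reporter released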
# Scale: z-score: higher = more reporter secreted into medium
# The deposit covers about 23,000 reagents; this is a random part of those with a known target gene and a result. 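Reduced-secretion tags in replicate 1 do not always agree with the z-scores; no criterion for assigning the tags was given.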 Names joined by + are all predicted targets of the reagent. Not all columns of the deposit are shown. Not given: the amount of reagent.
gene knocked down,PubChem SID,"z-score, replicate 1","z-score, replicate 2","z-score, replicate 3","z-score, replicate 4"
Ocrl,SID104198368,-0.09,0.24,,
sim,SID104196846,0.21,-1.02,,
Cdk8,SID104190905,-0.12,-0.1,,
CG10553,SID104194046,0.06,0.02,,
GCS2beta,SID104182752,0.68,0.6,,
CG32727,SID104197311,-0.17,0.16,,
Zip88E,SID104195354,0.47,0.44,,
CG12535,SID104197630,0.1,-0.24,,
Vha14-2,SID104191937,-0.04,0.3,,
CG2983,SID104180350,0.29,0.36,,
sls,SID104188320,0.16,0.19,,
sls,SID104188332,-0.04,0.32,,
sls,SID104188462,0.33,0.01,,
CR33319,SID104181618,0.39,-4.61,,
Dpy-30L2,SID104187997,0.54,0.41,,
CG30058 + CG34235 + CG34312,SID104185193,-0.19,0.4,,
CG14743,SID104186271,0.18,0.15,,
CG14961,SID104188212,0.16,0.26,,
CG31709,SID104180873,0.27,0.42,,
CG5565,SID104180482,0.19,0.12,,
Arl6IP1,SID104194023,0.11,-0.06,,
CG31128,SID104193467,0.27,0.28,,
Svil,SID104187773,-0.2,0.08,,
Svil,SID104188088,0.01,0.26,,
Svil,SID104188124,0.21,0.21,,
Svil,SID104188125,-2.02,-2.43,,
Svil,SID104188286,0.22,0.16,,

Copied from the list.
For “z-score, replicate 2”, CG31709 [SID104180873] reads 0.42
Value for CG5565 [SID104180482] under “z-score, replicate 2”: 0.12
GCS2beta [SID104182752], z-score, replicate 1: 0.68
Dpy-30L2 [SID104187997], z-score, replicate 2 → 0.41
Value for CG32727 [SID104197311] in “z-score, replicate 1”: -0.17
Entry of Svil [SID104188124] in “z-score, replicate 2”: 0.21

The results go on:
gene knocked down,PubChem SID,"z-score, replicate 1","z-score, replicate 2","z-score, replicate 3","z-score, replicate 4"
unc-4,SID104200173,0.44,0.63,0.7,0.6
unc-4,SID104201648,0.62,0.11,,
Ddc,SID104183106,0.1,0.45,,
CG2694,SID104198262,0.22,0.4,,
CR14798,SID104197748,0.27,0.22,,
ImpE1,SID104190987,0.24,0.33,,
ImpE1,SID104190988,0.22,0.18,,
CG8299,SID104186931,0.52,0.43,,
CG15317,SID104197797,0.35,0.59,,
CG12547,SID104187551,0.29,0.19,,
Elo68beta,SID104189652,0.4,0.51,,
RpS28a,SID104194856,0.12,-0.19,,
FoxK,SID104189651,0.01,0.04,,
CG32814,SID104197462,0.4,0.4,,
gish,SID104195946,0.62,0.37,,
CG11275,SID104183887,0.47,0.31,,
Acph-1,SID104193895,0.06,-0.44,,
CG10428,SID104181846,0.3,0.16,,
CG2120,SID104197999,0.27,0.46,,
CG13124,SID104182012,0.39,0.3,,
CG13287,SID104189753,0.68,0.55,,
Hr38,SID104183137,0.64,0.32,,
Orp8,SID104194902,0.4,0.42,0.37,0.34
Orp8,SID104195504,0.4,0.4,,
Hr96,SID104196499,0.18,0.17,,
Cyp1,SID104200026,0.53,0.34,,
ebd2,SID104191474,0.25,0.33,,
frac,SID104190659,0.53,0.42,,
Eno,SID104180542,-8.89,-0.23,,
CG32073,SID104188879,0.22,0.33,,
CG32073,SID104189686,0.53,0.46,,
mei-P26,SID104197527,-2.16,-1.48,,
Agpat4,SID104190238,0.2,0.2,,
lncRNA:CR43613,SID104193735,0.45,0.18,,
how,SID104196758,0.27,-0.25,,
hpRNA:CR32207,SID104189408,0.9,0.46,,
CG13196,SID104186113,0.26,0.25,,
Gr64d + Gr64e,SID104188238,0.47,0.45,0.21,0.37
Ubc6,SID104192162,0.42,-0.03,,
Hsp67Bc,SID104190985,0.22,0.46,,
Rsph4a,SID104184130,0,0.23,,
Ppi1,SID104195213,0.24,0.06,,
Mlc-c,SID104198475,0.39,0.27,,
CG1927,SID104187938,0.1,0.39,,
Sap130,SID104189472,-0.82,-0.69,,
CG4199,SID104198311,0.31,0.65,,
CG4199,SID104201101,0.28,0.81,,
CG32806,SID104201378,0.18,1.18,,
SLO2,SID104186004,-2.07,-3.25,,
SLO2,SID104186006,0.36,0.32,,
SLO2,SID104186008,0.55,0.2,,
SLO2,SID104186010,0.23,0.09,,
SLO2,SID104186011,-1.67,-2.36,,
CG42633,SID104195853,0.2,0.39,,
Mipp1,SID104191015,0.24,0.12,,
